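Genome-wide siRNA knockdown in TC32 Ewing sarcoma cells, comparing luciferase light from an NR0B1-promoter reporter with a CMV-promoter reporter 48 hours after transfection.
Each siRNA was applied at 20 nM.
A z-score of the log NR0B1-over-CMV signal, less the median of siRNAs with the same seed; more negative means a stronger specific loss of the NR0B1 reporter.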

The strongest results of the screen are mostly left out here.
Sequences are the guide (antisense) strand, without overhang.

strand	target gene	seed-corrected z-score
AUUAUUUAUACCGUGCUCU	DBNDD2	-1.74
UAUGGAGUAGCCUUGACAC	COL6A5	1.38
AAGGCUUCAAGGCCCAUCC	ADGRG3	-0.362
AUAGUAGCUAUCGUAGGUG	NKTR	-0.374
UAAGAUUGAUGAUCCCGGC	PTCHD1	-0.0695
AAUGGGAUGGGAAGUCACG	MAGEB1	0.6141
ACUCAUGUCAACAUCAUUC	SSR1	-0.4837
UCUACUUCUAUAACUACGC	RBMX2	-0.1369
UUUUGGUAUUUCUCAUUGC	FAAH2	-0.2342
AUCAUUCUCAAAGCUCUUC	INPPL1	-0.9697
UAAUCCACCCAUUCGGUCC	STXBP5L	-0.0744
UCUAGAGUCGUUCCGGUCC	SWSAP1	0.4717
UAGAUGUUCAGGAUUGAGA	TMEM88	0.7108
UCCAGUAUCUAUUAUUGCC	RNF32	-0.2846
UCCACGUUCUCUGCGAUCU	STX1A	0.4206
UUGAGUUUUCAUUACUUCC	PNLIPRP2	-1.273
UACGUGAUCCGACUCCACA	C7orf50	0.03655
UGACAUGAAGUGUUCACGC	PDSS2	-0.2147
UAAUCCUCAAAAUGGAUCC	VIPR1	0.3217
UCGGCACUUAUUACACUCC	KMT2A	-0.3468
AGAGUUUUUCCAUAAUUCC	NHLH1	1.044
AAUGUCAUCAGGAUAGCCG	MME	-0.5612
UUGGUUUCCAACAUAGCAC	FZD4	-1.404
UAAGAUGUCAGAAUCAGUC	OR11A1	0.7118
ACCCUGUCCAGAUAGAGUC	IL20	2.45
UAUUGAACCGAUGAAUCUC	WRNIP1	0.02907
UAAAGUCUCGAGCAAUCUC	DDB1	-0.1712
UUGAUCAAGACAUCCAGCC	RDH14	-0.08463
UAAAGGACCAUGGUUUGGU	TMEM109	-0.06775
UAGACGGUGAAUAUACUAG	NALCN	-0.3494
UGCAGUAUGAGCAAAGGCC	ZNF514	0.9674
AAAGUAGGCAUUAGAAUAG	SEMA5A	-0.3094
UGAGGAAACACUGGUAUGC	CRNN	0.3834
UUUAAUCAGAUCCACGAUG	GSTT1	-0.1489
ACAGAGAUCCCAAUCAUGG	AQP6	0.211
UAUGCUCUGGAAGUCAUGG	CNKSR1	-0.05117
UAGCACUGGACAUCCAUCC	PDZK1IP1	0.1621
UUCGUGUGGAUGGUAAAAG	RBP7	-0.8376
AUGUUGUGAAUGUAGGUUC	LINC00922	1.596
UUAGAUUGUACUGGAACUG	THSD7B	-0.4008

Some entries from above, unchanged:

* UAGACGGUGAAUAUACUAG against NALCN : seed-corrected z-score -0.3494
* UCUAGAGUCGUUCCGGUCC against SWSAP1 : seed-corrected z-score 0.4717
* UCCAGUAUCUAUUAUUGCC against RNF32 : seed-corrected z-score -0.2846
* UUUUGGUAUUUCUCAUUGC against FAAH2 : seed-corrected z-score -0.2342
* UGACAUGAAGUGUUCACGC against PDSS2 : seed-corrected z-score -0.2147

Data taken from PubChem BioAssay AID1159506, deposited by NCATS (2015).